# Results from article doi:10.1101/2022.07.18.500419.
# By UniProt entry, the sequences of proteins in these tests, tags left out. Residues count along the entry.
# UniProt Q8IFM5, residues 25-526: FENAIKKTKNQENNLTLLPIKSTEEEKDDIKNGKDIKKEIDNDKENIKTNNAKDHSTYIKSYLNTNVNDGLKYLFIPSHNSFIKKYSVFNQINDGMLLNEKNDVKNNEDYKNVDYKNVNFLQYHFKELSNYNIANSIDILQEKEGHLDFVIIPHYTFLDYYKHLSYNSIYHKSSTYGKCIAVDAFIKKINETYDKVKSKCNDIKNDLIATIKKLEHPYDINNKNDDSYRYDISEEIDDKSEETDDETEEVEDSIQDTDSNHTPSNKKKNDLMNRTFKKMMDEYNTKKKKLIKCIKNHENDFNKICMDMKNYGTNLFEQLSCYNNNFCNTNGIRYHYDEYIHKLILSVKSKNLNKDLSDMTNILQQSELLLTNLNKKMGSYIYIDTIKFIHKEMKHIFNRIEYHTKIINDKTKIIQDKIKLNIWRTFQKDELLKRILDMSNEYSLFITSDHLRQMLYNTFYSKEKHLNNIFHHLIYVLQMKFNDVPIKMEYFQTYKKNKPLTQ
# These are yes or no findings as the source states them, for the method shown. In cells and extracts the contact can be indirect. Some binding calls cover weakened binding; strength is not graded here.
# Target: full-length recombinant RH5 protein with His-tag (reticulocyte binding protein homologue 5) (Plasmodium falciparum) (UniProt Q8IFM5)
# Test: pull-down
substance,measurement,value
β2-adrenergic receptor (from UniProt P07550 1-413),binding,binds
